# The other results are listed elsewhere or left out.
# Key:
# Assay in all cases: glycan array binding signal (z-score within array); higher = stronger binding
# Conditions in all cases: glycan notation: IUPAC condensed, linker removed
# [1] = molecular target: GalNAc(b1-4)GlcNAc
# Outline: (§1)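 Negative Z-scores can be read as non-binding. The Z-score is calculated within each array and then averaged across arrays of one protein sequence at different concentrations or buffers and across linkers. Arrays, 3228 in all, were curated from the Consortium for Functional Glycomics database and kept only where the protein sequence was available.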
# [2] = molecular target: GalNAc(b1-4)GlcNAc(b1-2)Man
# Outline: as §1
# [3] = molecular target: GalNAc(b1-4)GlcNAc(b1-2)Man(a1-3)[GalNAc(b1-4)GlcNAc(b1-2)Man(a1-6)]Man(b1-4)GlcNAc(b1-4)GlcNAc
# Outline: as §1
# [4] = molecular target: GalNAc(b1-4)GlcNAc(b1-3)GalNAc(b1-4)GlcNAc
# Outline: as §1
# [5] = molecular target: GalNAc(b1-4)GlcNAc6S
# Outline: as §1
# [6] = molecular target: GalNAc(b1-6)GalNAc
# Outline: as §1
# [7] = molecular target: GalNAc3S(b1-4)GlcNAc
# Outline: as §1
# [8] = molecular target: GalNAc3S(b1-4)GlcNAc3S
# Outline: as §1
# [9] = molecular target: GalNAc3S(b1-4)[Fuc(a1-3)]GlcNAc
# Outline: as §1
# [10] = molecular target: GalNAc4S6S(b1-4)GlcNAc
# Outline: as §1
# [11] = molecular target: GalNAc6S(b1-4)GlcNAc
# Outline: as §1
# [12] = molecular target: Glc(a1-4)Glc
# Outline: as §1
# [13] = molecular target: Glc(a1-4)Glc(a1-4)Glc(a1-4)Glc
# Outline: as §1
# [14] = molecular target: Glc(a1-6)Glc(a1-6)Glc
# Outline: as §1
# [15] = molecular target: Glc(a1-6)Glc(a1-6)Glc(a1-6)Glc
# Outline: as §1
# [16] = molecular target: Glc(b1-4)Glc
# Outline: as §1
# [17] = molecular target: Glc(b1-6)Glc
# Outline: as §1
# [18] = molecular target: GlcA(b1-3)Gal
# Outline: as §1
# [19] = molecular target: GlcA(b1-3)GlcNAc
# Outline: as §1
# [20] = molecular target: GlcA(b1-6)Gal
# Outline: as §1
# [21] = molecular target: GlcA3S(b1-3)Gal(b1-4)GlcNAc(b1-2)Man
# Outline: as §1
# [22] = molecular target: GlcA3S(b1-3)Gal(b1-4)GlcNAc(b1-3)Gal(b1-4)Glc
# Outline: as §1
# [23] = molecular target: GlcNAc(a1-3)Gal(b1-4)GlcNAc
# Outline: as §1
# [24] = molecular target: GlcNAc(a1-4)Gal(b1-3)GlcNAc
# Outline: as §1
# [25] = molecular target: GlcNAc(a1-4)Gal(b1-4)GalNAc
# Outline: as §1
# [26] = molecular target: GlcNAc(a1-4)Gal(b1-4)GlcNAc
# Outline: as §1
# [27] = molecular target: GlcNAc(a1-4)Gal(b1-4)GlcNAc(b1-3)Gal(b1-4)Glc
# Outline: as §1
# [28] = molecular target: GlcNAc(a1-4)Gal(b1-4)GlcNAc(b1-3)Gal(b1-4)GlcNAc
# Outline: as §1
# [29] = molecular target: GlcNAc(a1-4)Gal(b1-4)GlcNAc(b1-3)Gal(b1-4)GlcNAc(b1-3)Gal(b1-4)GlcNAc
# Outline: as §1
# [30] = molecular target: GlcNAc(a1-4)Gal(b1-4)GlcNAc(b1-3)Gal(b1-4)[Fuc(a1-3)]GlcNAc(b1-3)Gal(b1-4)[Fuc(a1-3)]GlcNAc
# Outline: as §1
# [31] = molecular target: GlcNAc(a1-6)Gal(b1-4)GlcNAc
# Outline: as §1
# [32] = molecular target: GlcNAc(b1-2)Gal(b1-3)GalNAc
# Outline: as §1
# [33] = molecular target: GlcNAc(b1-2)Man(a1-3)[GlcNAc(b1-2)Man(a1-6)]Man(b1-4)GlcNAc(b1-4)GlcNAc
# Outline: as §1
# [34] = molecular target: GlcNAc(b1-2)Man(a1-3)[GlcNAc(b1-2)Man(a1-6)]Man(b1-4)GlcNAc(b1-4)[Fuc(a1-6)]GlcNAc
# Outline: as §1
# [35] = molecular target: GlcNAc(b1-2)Man(a1-3)[GlcNAc(b1-4)][GlcNAc(b1-2)Man(a1-6)]Man(b1-4)GlcNAc(b1-4)GlcNAc
# Outline: as §1
# [36] = molecular target: GlcNAc(b1-2)Man(a1-3)[GlcNAc(b1-4)][GlcNAc(b1-2)Man(a1-6)]Man(b1-4)GlcNAc(b1-4)[Fuc(a1-6)]GlcNAc
# Outline: as §1
# [37] = molecular target: GlcNAc(b1-2)[GlcNAc(b1-4)]Man(a1-3)[GlcNAc(b1-2)Man(a1-6)]Man(b1-4)GlcNAc(b1-4)GlcNAc
# Outline: as §1
binder,measurement,setting,value
"HA-61200 (Pseudomonas aeruginosa), Q02SP8_PSEAB (protein) MNKCYALVWNVSQGCWNVVSEGSRRRGKPAGAKAAIASVLALLGATALAPAYALPSGGTVVGGSANGEIHLSGGNSLSVNQKVDKLIANWDSFSVAAGERVIFNQPSSSSIALNRVIGTKASDIQGRIDANGQVFLVNPNGVLFGRGAQVNVGGLVASTLDITDAEFNGNSSRYRFTGPSTNGVLNHGGAITAAEGGSIALLGAQVDNRGTVLAQMGGVGLGAGSDLTLNFDGNKLLDIRVDAGVANALASNGGLLKADGGRVLMAARTANALLNTVVNSQGAIEARSLRGKNGRIVLDG",glycan array binding signal (z-score),[1],0.059
same,glycan array binding signal (z-score),[2],0.747
same,glycan array binding signal (z-score),[3],1
same,glycan array binding signal (z-score),[4],0.103
same,glycan array binding signal (z-score),[5],0.535
same,glycan array binding signal (z-score),[6],0.071
same,glycan array binding signal (z-score),[7],-0.608
same,glycan array binding signal (z-score),[8],-0.53
same,glycan array binding signal (z-score),[9],-0.736
same,glycan array binding signal (z-score),[10],-0.044
same,glycan array binding signal (z-score),[11],-0.145
same,glycan array binding signal (z-score),[12],0.046
same,glycan array binding signal (z-score),[13],-0.354
same,glycan array binding signal (z-score),[14],-0.164
same,glycan array binding signal (z-score),[15],-0.738
same,glycan array binding signal (z-score),[16],-0.505
same,glycan array binding signal (z-score),[17],-0.682
same,glycan array binding signal (z-score),[18],-0.781
same,glycan array binding signal (z-score),[19],-0.297
same,glycan array binding signal (z-score),[20],0.41
same,glycan array binding signal (z-score),[21],-0.103
same,glycan array binding signal (z-score),[22],-1.04
same,glycan array binding signal (z-score),[23],-1.02
same,glycan array binding signal (z-score),[24],-0.514
same,glycan array binding signal (z-score),[25],0.631
same,glycan array binding signal (z-score),[26],-0.006
same,glycan array binding signal (z-score),[27],-1.35
same,glycan array binding signal (z-score),[28],-0.622
same,glycan array binding signal (z-score),[29],0.386
same,glycan array binding signal (z-score),[30],-0.389
same,glycan array binding signal (z-score),[31],-0.238
same,glycan array binding signal (z-score),[32],-0.825
same,glycan array binding signal (z-score),[33],0.303
same,glycan array binding signal (z-score),[34],-0.969
same,glycan array binding signal (z-score),[35],-0.594
same,glycan array binding signal (z-score),[36],-0.132
same,glycan array binding signal (z-score),[37],0.556

# Pulled one by one from the entries so far, two records:
binder,measurement,setting,value
"HA-61200 (Pseudomonas aeruginosa), Q02SP8_PSEAB (protein) MNKCYALVWNVSQGCWNVVSEGSRRRGKPAGAKAAIASVLALLGATALAPAYALPSGGTVVGGSANGEIHLSGGNSLSVNQKVDKLIANWDSFSVAAGERVIFNQPSSSSIALNRVIGTKASDIQGRIDANGQVFLVNPNGVLFGRGAQVNVGGLVASTLDITDAEFNGNSSRYRFTGPSTNGVLNHGGAITAAEGGSIALLGAQVDNRGTVLAQMGGVGLGAGSDLTLNFDGNKLLDIRVDAGVANALASNGGLLKADGGRVLMAARTANALLNTVVNSQGAIEARSLRGKNGRIVLDG",glycan array binding signal (z-score),[5],0.535
same,glycan array binding signal (z-score),[31],-0.238
